Patent WO2009080764A2 (dated 2009)
Results are given in words; binding and its absence hold for the method and conditions named. Some entries that bind do so weakly or less than the wild type.

Amino acid sequences for entries named in this document (tags omitted). A change or cut given only in a name is not applied to a line headed by its entry.
UniProt P55899: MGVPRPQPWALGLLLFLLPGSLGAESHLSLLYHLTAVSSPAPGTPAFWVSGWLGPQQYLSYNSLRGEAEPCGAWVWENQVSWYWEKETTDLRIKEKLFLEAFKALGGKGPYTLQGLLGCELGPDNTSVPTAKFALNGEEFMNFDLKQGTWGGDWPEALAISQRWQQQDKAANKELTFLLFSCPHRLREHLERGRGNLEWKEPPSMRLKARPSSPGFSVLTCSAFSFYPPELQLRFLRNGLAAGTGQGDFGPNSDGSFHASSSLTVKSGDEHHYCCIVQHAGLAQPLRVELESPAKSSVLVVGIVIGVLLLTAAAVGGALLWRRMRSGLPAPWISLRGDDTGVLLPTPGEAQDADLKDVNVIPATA
UniProt P61769: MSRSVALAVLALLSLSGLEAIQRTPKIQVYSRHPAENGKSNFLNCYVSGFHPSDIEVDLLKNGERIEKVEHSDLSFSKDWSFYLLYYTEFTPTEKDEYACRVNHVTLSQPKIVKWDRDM

Biological target: shFcRn-GST (GST-fused soluble human FcRn, heterodimeric) (human) (UniProt P55899+P61769)
Test: SPR, 25-50 nM over immobilized shFcRn-GST, pH 6.0 and pH 7.4

- binding: binds
B1: 218-H4_20GS_218-H4 (bivalent Nb 218-H4) (VHH)
chain: EVQLVESGGALVQAGGSLRLSCVASGRTFNSIGMGWFRQAPGKERDFIGGITWDGRDTYYTDSVKGRFTISRDNAKNTVYLQMNSLKPWDTAVYYCAANRDPWIATSYQDYAYWGQGTQVTVSSGGGGSGGGGSGGGGSGGGGSEVQLVESGGALVQAGGSLRLSCVASGRTFNSIGMGWFRQAPGKERDFIGGITWDGRDTYYTDSVKGRFTISRDNAKNTVYLQMNSLKPWDTAVYYCAANRDPWIATSYQDYAYWGQGTQVTVSS
